# Test results reported in the supplement of paper PMC6411743.
# ± gives the standard deviation of the averaged measurements. This is a selection; strong and weak results do not stand in their true shares.
# Experiments:
# Assay in all cases: NP40-soluble protein abundance relative to vehicle (solubility fold change) (ratio); higher = more soluble protein in presence of AMP-PNP
# UniProt Q5VST6 = target: T1, UniProt Q5VST6
# T1 sequence (whole entry): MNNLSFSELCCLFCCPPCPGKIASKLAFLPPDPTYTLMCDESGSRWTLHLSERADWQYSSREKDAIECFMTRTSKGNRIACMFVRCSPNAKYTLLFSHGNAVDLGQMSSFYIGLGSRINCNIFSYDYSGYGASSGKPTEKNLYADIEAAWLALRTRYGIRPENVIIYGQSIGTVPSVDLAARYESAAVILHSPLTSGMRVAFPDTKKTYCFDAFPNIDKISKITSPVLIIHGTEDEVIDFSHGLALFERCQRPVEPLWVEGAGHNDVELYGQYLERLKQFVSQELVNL
# Procedure, shortened: (§1)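 Crude Jurkat lysate, prepared by Dounce homogenisation, was exposed to eight concentrations from 0.1 to 10 mM for 10 min at room temperature and then 3 min at 37 °C. Solubilisation used 0.8% NP40 with benzonase for 60 min at 4 °C, followed by ultracentrifugation and TMT labelling of the supernatant for LC-MS/MS. After vsn normalisation of intensities, each value is the fold change against the detergent-processed vehicle within each replicate, across three independent experiments.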
# UniProt Q5W0B1 = target: T2, UniProt Q5W0B1
# T2 sequence (whole entry): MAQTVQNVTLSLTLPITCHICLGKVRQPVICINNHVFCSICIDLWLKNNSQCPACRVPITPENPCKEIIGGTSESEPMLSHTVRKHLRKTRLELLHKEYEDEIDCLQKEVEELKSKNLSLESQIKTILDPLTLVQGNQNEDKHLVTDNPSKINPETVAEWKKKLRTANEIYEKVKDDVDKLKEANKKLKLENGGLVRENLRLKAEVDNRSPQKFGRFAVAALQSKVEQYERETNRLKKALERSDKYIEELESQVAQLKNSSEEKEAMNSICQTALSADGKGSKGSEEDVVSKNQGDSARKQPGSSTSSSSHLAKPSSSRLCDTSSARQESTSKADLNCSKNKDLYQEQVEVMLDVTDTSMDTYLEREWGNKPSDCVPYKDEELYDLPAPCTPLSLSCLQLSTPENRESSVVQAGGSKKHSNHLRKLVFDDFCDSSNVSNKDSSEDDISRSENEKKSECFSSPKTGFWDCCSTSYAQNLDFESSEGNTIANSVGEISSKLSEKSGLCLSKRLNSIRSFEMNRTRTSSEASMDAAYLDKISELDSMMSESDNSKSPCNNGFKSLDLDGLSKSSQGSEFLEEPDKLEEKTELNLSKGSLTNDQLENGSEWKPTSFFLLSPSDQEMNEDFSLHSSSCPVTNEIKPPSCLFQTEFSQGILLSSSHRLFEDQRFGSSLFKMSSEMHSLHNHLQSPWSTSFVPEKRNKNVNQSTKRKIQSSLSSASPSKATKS
# Procedure, shortened: as §1
# UniProt Q68CQ4 = target: T3, UniProt Q68CQ4
# T3 sequence (whole entry): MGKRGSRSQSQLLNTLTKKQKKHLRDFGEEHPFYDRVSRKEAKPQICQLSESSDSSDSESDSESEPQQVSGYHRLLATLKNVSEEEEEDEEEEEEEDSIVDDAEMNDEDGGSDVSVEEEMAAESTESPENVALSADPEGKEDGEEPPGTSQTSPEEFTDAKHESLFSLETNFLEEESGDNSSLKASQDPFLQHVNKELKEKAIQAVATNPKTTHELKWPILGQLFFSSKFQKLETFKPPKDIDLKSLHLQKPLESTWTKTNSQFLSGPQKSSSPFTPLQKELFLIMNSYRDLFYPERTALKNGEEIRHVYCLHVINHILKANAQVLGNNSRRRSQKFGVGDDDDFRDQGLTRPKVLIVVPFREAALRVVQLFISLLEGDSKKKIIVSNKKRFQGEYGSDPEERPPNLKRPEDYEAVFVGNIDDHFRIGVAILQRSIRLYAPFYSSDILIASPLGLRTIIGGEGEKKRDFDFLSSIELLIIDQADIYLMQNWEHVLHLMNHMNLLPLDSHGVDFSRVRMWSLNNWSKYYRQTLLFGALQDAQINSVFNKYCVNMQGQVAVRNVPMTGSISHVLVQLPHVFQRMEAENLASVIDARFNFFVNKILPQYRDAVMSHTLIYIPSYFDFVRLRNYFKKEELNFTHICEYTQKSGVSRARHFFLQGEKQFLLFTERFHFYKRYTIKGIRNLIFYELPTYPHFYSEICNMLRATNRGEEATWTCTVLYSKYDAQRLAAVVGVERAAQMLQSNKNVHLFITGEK
# Procedure, shortened: as §1
# UniProt Q68CZ6 = target: T4, UniProt Q68CZ6
# T4 sequence (whole entry): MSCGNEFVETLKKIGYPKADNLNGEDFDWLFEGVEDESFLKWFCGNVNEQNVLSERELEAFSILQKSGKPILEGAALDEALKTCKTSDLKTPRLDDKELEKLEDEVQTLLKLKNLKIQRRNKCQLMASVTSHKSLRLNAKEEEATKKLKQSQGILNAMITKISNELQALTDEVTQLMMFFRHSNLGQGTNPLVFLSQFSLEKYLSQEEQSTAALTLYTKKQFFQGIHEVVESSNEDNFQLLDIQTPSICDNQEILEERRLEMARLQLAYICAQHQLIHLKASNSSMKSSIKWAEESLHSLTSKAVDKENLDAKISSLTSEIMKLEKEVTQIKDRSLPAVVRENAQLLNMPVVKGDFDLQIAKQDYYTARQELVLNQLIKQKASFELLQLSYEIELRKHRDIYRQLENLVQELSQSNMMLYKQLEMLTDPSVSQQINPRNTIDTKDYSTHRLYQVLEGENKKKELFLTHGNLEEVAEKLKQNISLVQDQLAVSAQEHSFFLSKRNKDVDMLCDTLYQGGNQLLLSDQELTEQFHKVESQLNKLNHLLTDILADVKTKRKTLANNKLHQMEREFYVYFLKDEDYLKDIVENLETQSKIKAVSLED
# Procedure, shortened: as §1
# [1] = target: T5, UniProt Q68D10 and related entries
# T5 sequence (whole entry): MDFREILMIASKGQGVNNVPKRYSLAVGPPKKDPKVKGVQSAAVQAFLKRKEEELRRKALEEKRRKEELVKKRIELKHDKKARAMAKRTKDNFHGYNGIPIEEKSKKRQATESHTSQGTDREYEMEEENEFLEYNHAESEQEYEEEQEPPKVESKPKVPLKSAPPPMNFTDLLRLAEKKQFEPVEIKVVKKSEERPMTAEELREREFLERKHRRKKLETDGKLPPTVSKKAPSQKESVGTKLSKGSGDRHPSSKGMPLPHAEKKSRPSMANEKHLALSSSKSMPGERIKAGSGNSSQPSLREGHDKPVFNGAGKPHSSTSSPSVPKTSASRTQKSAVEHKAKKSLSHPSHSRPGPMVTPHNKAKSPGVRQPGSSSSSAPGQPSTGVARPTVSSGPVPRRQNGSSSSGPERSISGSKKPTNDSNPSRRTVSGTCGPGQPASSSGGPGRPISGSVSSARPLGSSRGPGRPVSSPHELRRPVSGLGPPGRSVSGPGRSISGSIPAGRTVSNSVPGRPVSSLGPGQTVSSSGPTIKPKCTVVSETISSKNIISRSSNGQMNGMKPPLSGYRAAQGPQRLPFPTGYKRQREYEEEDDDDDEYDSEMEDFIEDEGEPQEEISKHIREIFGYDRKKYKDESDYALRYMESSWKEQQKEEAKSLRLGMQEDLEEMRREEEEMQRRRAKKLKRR
# Procedure, shortened: as §1
compound,measurement,setting,value
Nc1ncnc2c1ncn2[C@@H]1O[C@H](COP(=O)(O)OP(=O)(O)NP(=O)(O)O)[C@@H](O)[C@H]1O [adenylyl imidodiphosphate],NP40-soluble protein abundance,UniProt Q5VST6; concentration: 1mM,1.05 ± 0.094
same,NP40-soluble protein abundance,UniProt Q5VST6; concentration: 2mM,1 ± 0.1
same,NP40-soluble protein abundance,UniProt Q5VST6; concentration: 4mM,1.02 ± 0.095
same,NP40-soluble protein abundance,UniProt Q5VST6; concentration: 6mM,1.01 ± 0.078
same,NP40-soluble protein abundance,UniProt Q5VST6; concentration: 8mM,1.02 ± 0.071
same,NP40-soluble protein abundance,UniProt Q5VST6; concentration: 10mM,1.01 ± 0.14
same,NP40-soluble protein abundance,UniProt Q5W0B1; concentration: 1mM,1.01 ± 0.031
same,NP40-soluble protein abundance,UniProt Q5W0B1; concentration: 2mM,1.04 ± 0.014
same,NP40-soluble protein abundance,UniProt Q5W0B1; concentration: 4mM,1.03 ± 0.027
same,NP40-soluble protein abundance,UniProt Q5W0B1; concentration: 6mM,1 ± 0.031
same,NP40-soluble protein abundance,UniProt Q5W0B1; concentration: 8mM,0.967 ± 0.016
same,NP40-soluble protein abundance,UniProt Q5W0B1; concentration: 10mM,1.02 ± 0.057
same,NP40-soluble protein abundance,UniProt Q68CQ4; concentration: 1mM,1.013 ± 0.0022
same,NP40-soluble protein abundance,UniProt Q68CQ4; concentration: 2mM,1.16 ± 0.2
same,NP40-soluble protein abundance,UniProt Q68CQ4; concentration: 4mM,1.07 ± 0.046
same,NP40-soluble protein abundance,UniProt Q68CQ4; concentration: 6mM,1.06 ± 0.013
same,NP40-soluble protein abundance,UniProt Q68CQ4; concentration: 8mM,1.08 ± 0.012
same,NP40-soluble protein abundance,UniProt Q68CQ4; concentration: 10mM,1.08 ± 0.019
same,NP40-soluble protein abundance,UniProt Q68CZ6; concentration: 1mM,1.01 ± 0.045
same,NP40-soluble protein abundance,UniProt Q68CZ6; concentration: 2mM,1.01 ± 0.034
same,NP40-soluble protein abundance,UniProt Q68CZ6; concentration: 4mM,0.998 ± 0.042
same,NP40-soluble protein abundance,UniProt Q68CZ6; concentration: 6mM,0.9579 ± 0.007
same,NP40-soluble protein abundance,UniProt Q68CZ6; concentration: 8mM,0.954 ± 0.059
same,NP40-soluble protein abundance,UniProt Q68CZ6; concentration: 10mM,0.953 ± 0.012
same,NP40-soluble protein abundance,[1]; concentration: 1mM,1.042 ± 0.01
same,NP40-soluble protein abundance,[1]; concentration: 2mM,1.13 ± 0.075
same,NP40-soluble protein abundance,[1]; concentration: 4mM,1.13 ± 0.027
same,NP40-soluble protein abundance,[1]; concentration: 6mM,1.19 ± 0.041
same,NP40-soluble protein abundance,[1]; concentration: 8mM,1.24 ± 0.037
same,NP40-soluble protein abundance,[1]; concentration: 10mM,1.33 ± 0.07

# For convenience, some entries already given:
compound,measurement,setting,value
Nc1ncnc2c1ncn2[C@@H]1O[C@H](COP(=O)(O)OP(=O)(O)NP(=O)(O)O)[C@@H](O)[C@H]1O [adenylyl imidodiphosphate],NP40-soluble protein abundance,UniProt Q68CZ6; concentration: 2mM,1.01 ± 0.034
same,NP40-soluble protein abundance,UniProt Q68CZ6; concentration: 4mM,0.998 ± 0.042
same,NP40-soluble protein abundance,UniProt Q68CZ6; concentration: 6mM,0.9579 ± 0.007
same,NP40-soluble protein abundance,UniProt Q68CZ6; concentration: 8mM,0.954 ± 0.059
same,NP40-soluble protein abundance,UniProt Q68CZ6; concentration: 10mM,0.953 ± 0.012
same,NP40-soluble protein abundance,[1]; concentration: 1mM,1.042 ± 0.01
